Measurements taken from patent US20050043413A1, “Active ingredient for producing a substance containing isocitrate for influencing the coagulation tendency of blood” (responsif GmbH, priority 2002, published 2005).
At least one compound was matched to its structure with a doubt left.

Test system: Balb/c mice
Experiment: clotting time (prothrombin time, activated partial thromboplastin time) after injection into the blood circulation of mice
Assay type: in vivo
Conditions: six-week old female Balb/c mice, injected directly into the blood circulation, citrate concentration in the blood about 20 mM

SMILES: O=C(O)CC(C(=O)O)C(O)C(=O)O (racemic) [Trisodium DL-isocitrate]
- clotting time (compared with experimental group without citrate injection): longer than in an experimental group without citrate injection
- clotting time (free calcium ions adjusted to 1.5 mM by giving calcium ions, compared with control group without citrate injection): longer than in a control group without citrate injection
